No constants are given. Whether binding was seen depends on the method and setting. In cells and extracts the contact can be indirect. Some entries that bind do so weakly or less than the wild type. Tags and fused reporters may be left off the sequences shown.
Target: T1, TAP-tagged Rtt105 (S. cerevisiae) (UniProt P40063)
T1 sequence: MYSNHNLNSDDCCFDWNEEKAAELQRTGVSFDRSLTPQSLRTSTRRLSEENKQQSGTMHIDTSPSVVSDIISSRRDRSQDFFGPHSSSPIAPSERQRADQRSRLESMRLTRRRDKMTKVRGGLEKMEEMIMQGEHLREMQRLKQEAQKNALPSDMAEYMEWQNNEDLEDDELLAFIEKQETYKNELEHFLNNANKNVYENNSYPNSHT
Assay: co-IP

Amino acid sequences for entries named in this document (tags omitted). A change or cut given only in a name is not applied to a line headed by its entry.
UniProt P22336: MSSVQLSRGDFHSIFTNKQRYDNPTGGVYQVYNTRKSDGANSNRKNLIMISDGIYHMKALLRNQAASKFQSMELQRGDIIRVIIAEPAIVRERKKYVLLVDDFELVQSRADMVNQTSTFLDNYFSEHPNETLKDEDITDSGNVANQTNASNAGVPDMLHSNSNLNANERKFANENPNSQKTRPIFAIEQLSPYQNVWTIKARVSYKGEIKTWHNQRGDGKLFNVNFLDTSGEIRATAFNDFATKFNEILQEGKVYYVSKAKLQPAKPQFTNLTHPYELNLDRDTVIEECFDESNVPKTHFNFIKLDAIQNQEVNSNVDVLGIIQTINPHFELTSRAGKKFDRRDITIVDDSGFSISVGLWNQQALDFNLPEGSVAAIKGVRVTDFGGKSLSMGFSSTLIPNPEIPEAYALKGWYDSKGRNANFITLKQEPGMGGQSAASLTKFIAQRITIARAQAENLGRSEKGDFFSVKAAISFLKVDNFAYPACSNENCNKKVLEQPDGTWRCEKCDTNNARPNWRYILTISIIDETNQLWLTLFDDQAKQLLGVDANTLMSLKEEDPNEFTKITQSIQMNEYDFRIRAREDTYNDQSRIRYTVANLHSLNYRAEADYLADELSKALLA
UniProt P26754: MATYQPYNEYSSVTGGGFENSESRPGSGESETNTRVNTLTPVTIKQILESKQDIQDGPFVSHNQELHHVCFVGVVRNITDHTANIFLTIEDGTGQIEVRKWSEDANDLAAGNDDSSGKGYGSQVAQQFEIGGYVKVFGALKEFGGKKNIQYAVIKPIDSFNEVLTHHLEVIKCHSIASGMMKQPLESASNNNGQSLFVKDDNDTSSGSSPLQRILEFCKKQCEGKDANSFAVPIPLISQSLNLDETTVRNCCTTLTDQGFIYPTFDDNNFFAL
UniProt P26755: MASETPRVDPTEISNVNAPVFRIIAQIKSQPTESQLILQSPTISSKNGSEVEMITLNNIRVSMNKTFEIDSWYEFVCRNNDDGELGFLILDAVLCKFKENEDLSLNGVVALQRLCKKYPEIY

Substance	binding
RPA with wild type Rfa1 in yeast cells (from UniProt P22336;P26754;P26755) (complex)	binds
t33 RPA mutant (S373P in DBD-B) (from UniProt P22336;P26754;P26755) (complex)	binds
zm1 (K494A) mutant of RPA (from UniProt P22336;P26754;P26755) (complex)	binds

Source: article doi:10.1101/2022.02.05.479199
